Source: paper PMC9563079
Results are given in words; binding and its absence hold for the method and conditions named. For some assays here: In cells and extracts the contact can be indirect. Some binding calls cover weakened binding; strength is not graded here. For some assays here: Where a sequence is shown, tags or fusion partners need not be part of it.

Sequences of proteins named here, by UniProt entry; tags and fusion partners are left off.
UniProt P35222: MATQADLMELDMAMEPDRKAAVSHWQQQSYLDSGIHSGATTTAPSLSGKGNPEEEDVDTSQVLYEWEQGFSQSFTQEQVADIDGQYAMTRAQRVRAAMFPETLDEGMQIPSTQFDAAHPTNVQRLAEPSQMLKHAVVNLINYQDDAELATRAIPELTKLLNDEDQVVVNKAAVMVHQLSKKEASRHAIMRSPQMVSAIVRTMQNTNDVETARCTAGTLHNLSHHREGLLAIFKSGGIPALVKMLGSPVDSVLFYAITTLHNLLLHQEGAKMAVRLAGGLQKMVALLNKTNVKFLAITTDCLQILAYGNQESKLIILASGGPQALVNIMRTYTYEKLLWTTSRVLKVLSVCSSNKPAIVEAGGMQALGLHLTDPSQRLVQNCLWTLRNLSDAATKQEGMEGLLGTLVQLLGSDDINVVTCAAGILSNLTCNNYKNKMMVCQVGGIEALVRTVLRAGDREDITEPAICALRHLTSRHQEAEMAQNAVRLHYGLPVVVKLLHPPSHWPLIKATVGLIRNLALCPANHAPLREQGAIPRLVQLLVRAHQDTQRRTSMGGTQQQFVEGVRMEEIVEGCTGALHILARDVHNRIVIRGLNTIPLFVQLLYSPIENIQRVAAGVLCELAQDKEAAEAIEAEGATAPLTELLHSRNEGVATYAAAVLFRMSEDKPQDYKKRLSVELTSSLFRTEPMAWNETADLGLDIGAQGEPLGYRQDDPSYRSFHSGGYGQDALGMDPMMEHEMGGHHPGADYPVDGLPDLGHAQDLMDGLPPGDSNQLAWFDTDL

Tests used:
[1] = biological target: T1, CUEDC2 (CUE domain containing 2), over-expressed in HEK-293FT cells (UniProt Q9H467); test: co-IP; exogenous Co-IP in HEK-293FT cells with over-expressed CUEDC2 or over-expressed β-catenin; antibodies against CUEDC2 or β-catenin
T1 sequence: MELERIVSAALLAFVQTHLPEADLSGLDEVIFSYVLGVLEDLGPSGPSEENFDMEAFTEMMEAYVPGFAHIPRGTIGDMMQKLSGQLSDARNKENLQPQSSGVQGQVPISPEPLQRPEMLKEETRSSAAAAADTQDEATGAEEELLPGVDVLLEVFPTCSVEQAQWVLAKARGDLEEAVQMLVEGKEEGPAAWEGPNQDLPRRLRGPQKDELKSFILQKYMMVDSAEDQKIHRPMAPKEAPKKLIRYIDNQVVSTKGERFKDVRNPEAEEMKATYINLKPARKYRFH

[2] = biological target: T2, CUE-Flag (Flag-labeled CUE domain of CUEDC2) (UniProt Q9H467); test: pull-down; Flag pull-down with purified recombinant Flag-labeled and His-labeled proteins, followed by immunoblotting; both purified
T2 sequence: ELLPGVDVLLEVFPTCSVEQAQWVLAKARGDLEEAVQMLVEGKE

CUEDC2-Flag = biological target: T3, CUEDC2-Flag (UniProt Q9H467); test: as above
T3 sequence: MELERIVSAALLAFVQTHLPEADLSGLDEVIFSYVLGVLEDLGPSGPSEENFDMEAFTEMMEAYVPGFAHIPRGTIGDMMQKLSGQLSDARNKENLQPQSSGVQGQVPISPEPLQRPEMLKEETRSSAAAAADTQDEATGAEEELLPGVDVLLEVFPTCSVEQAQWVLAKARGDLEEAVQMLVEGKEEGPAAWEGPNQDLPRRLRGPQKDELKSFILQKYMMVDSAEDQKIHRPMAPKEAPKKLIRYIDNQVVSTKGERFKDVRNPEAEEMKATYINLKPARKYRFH

[3] = biological target: T4, CUEDC2, endogenous in MDA-MB-468 cells (human (endogenous in MDA-MB-468)) (UniProt Q9H467); test: co-IP; endogenous Co-IP in MDA-MB-468 cells with basal expression of CUEDC2 and β-catenin; antibodies against CUEDC2 or β-catenin
T4 sequence: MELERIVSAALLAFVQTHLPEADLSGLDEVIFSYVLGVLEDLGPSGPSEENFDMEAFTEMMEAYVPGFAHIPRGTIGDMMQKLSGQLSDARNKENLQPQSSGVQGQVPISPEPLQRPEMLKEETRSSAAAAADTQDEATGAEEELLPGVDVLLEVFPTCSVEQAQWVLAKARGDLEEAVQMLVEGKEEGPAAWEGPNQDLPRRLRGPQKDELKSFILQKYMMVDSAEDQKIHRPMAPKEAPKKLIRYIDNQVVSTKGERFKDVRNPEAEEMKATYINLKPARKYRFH

[4] = biological target: T5, CUEDC2 (construct of the LSPR analysis and the peptide competition assay not stated) (UniProt Q9H467); test: peptide competition assay (PCA); details in the supplementary methods, not shown
T5 sequence: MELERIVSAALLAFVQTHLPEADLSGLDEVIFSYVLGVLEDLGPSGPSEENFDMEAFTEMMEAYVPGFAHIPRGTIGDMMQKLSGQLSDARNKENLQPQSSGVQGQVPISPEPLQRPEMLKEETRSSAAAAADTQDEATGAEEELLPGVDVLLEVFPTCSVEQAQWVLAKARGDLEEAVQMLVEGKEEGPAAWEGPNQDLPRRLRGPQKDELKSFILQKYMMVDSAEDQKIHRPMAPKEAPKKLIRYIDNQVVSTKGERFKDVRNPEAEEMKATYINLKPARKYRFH

[5] = biological target: β-catenin, over-expressed in HEK-293FT cells (UniProt P35222); test: co-IP; exogenous Co-IP in HEK-293FT cells with over-expressed CUEDC2 or over-expressed β-catenin; antibodies against CUEDC2 or β-catenin
[6] = biological target: β-catenin, endogenous in MDA-MB-468 cells (human (endogenous in MDA-MB-468)) (UniProt P35222); test: co-IP; endogenous Co-IP in MDA-MB-468 cells with basal expression of CUEDC2 and β-catenin; antibodies against CUEDC2 or β-catenin
β-catenin-Flag = β-catenin-Flag (UniProt P35222); test: pull-down; Flag pull-down with purified recombinant Flag-labeled and His-labeled proteins, followed by immunoblotting; both purified

β-catenin, endogenous in HEK-293FT cells (from UniProt P35222 1-781)
binding [1]: binds

β-catenin-His (from UniProt P35222 1-781)
binding [2]: binds
binding (CUEDC2-Flag): binds

β-catenin, endogenous in MDA-MB-468 cells (from UniProt P35222 1-781)
binding [3]: binds

β-catenin (construct of the peptide competition assay not stated) (from UniProt P35222 1-781)
binding [4]: binds

B1: CUEDC2, endogenous in HEK-293FT cells (protein, UniProt Q9H467 1-287)
chain: MELERIVSAALLAFVQTHLPEADLSGLDEVIFSYVLGVLEDLGPSGPSEENFDMEAFTEMMEAYVPGFAHIPRGTIGDMMQKLSGQLSDARNKENLQPQSSGVQGQVPISPEPLQRPEMLKEETRSSAAAAADTQDEATGAEEELLPGVDVLLEVFPTCSVEQAQWVLAKARGDLEEAVQMLVEGKEEGPAAWEGPNQDLPRRLRGPQKDELKSFILQKYMMVDSAEDQKIHRPMAPKEAPKKLIRYIDNQVVSTKGERFKDVRNPEAEEMKATYINLKPARKYRFH
binding [5]: binds

B2: CUEDC2, endogenous in MDA-MB-468 cells (protein, UniProt Q9H467 1-287)
chain: MELERIVSAALLAFVQTHLPEADLSGLDEVIFSYVLGVLEDLGPSGPSEENFDMEAFTEMMEAYVPGFAHIPRGTIGDMMQKLSGQLSDARNKENLQPQSSGVQGQVPISPEPLQRPEMLKEETRSSAAAAADTQDEATGAEEELLPGVDVLLEVFPTCSVEQAQWVLAKARGDLEEAVQMLVEGKEEGPAAWEGPNQDLPRRLRGPQKDELKSFILQKYMMVDSAEDQKIHRPMAPKEAPKKLIRYIDNQVVSTKGERFKDVRNPEAEEMKATYINLKPARKYRFH
binding [6]: binds

B3: CUEDC2-His (protein, UniProt Q9H467 1-287)
chain: MELERIVSAALLAFVQTHLPEADLSGLDEVIFSYVLGVLEDLGPSGPSEENFDMEAFTEMMEAYVPGFAHIPRGTIGDMMQKLSGQLSDARNKENLQPQSSGVQGQVPISPEPLQRPEMLKEETRSSAAAAADTQDEATGAEEELLPGVDVLLEVFPTCSVEQAQWVLAKARGDLEEAVQMLVEGKEEGPAAWEGPNQDLPRRLRGPQKDELKSFILQKYMMVDSAEDQKIHRPMAPKEAPKKLIRYIDNQVVSTKGERFKDVRNPEAEEMKATYINLKPARKYRFH
binding (β-catenin-Flag): binds
